# In patent publication US9642897B2, “Treatment of bone diseases” (THE UNIVERSITY OF SYDNEY, priority 2011, dated 2017):
# Legend:
# [1] = Serum concentrations of calciotropic hormones (vitamin D and PTH); type: in vivo, C57BL/6 mice
# [2] = Serum concentration of nine essential minerals (GC-MS); type: in vivo, C57BL/6 mice
compound,measurement,setting,value
"O=C(O)c1ccccn1 [PA, pyridine-2-carboxylic acid]",PTH (serum),"[1]; OVX, PA250",35 ± 8 pg/mL
same,Vitamin D (serum),"[1]; OVX, PA250",52 ± 16 nmol/L
same,PTH (serum),"[1]; OVX, PA500",35 ± 6 pg/mL
same,Vitamin D (serum),"[1]; OVX, PA500",56 ± 4 nmol/L
same,PTH (serum),"[1]; OVX, PA1000",40 ± 2 pg/mL
same,Vitamin D (serum),"[1]; OVX, PA1000",52 ± 13 nmol/L
same,PTH (serum),"[1]; Sham, PA250",40 ± 3 pg/mL
same,Vitamin D (serum),"[1]; Sham, PA250",54 ± 12 nmol/L
same,PTH (serum),"[1]; Sham, PA500",35 ± 5 pg/mL
same,Vitamin D (serum),"[1]; Sham, PA500",52 ± 14 nmol/L
same,PTH (serum),"[1]; Sham, PA1000",36 ± 5 pg/mL
same,Vitamin D (serum),"[1]; Sham, PA1000",53 ± 13 nmol/L
same,Serum Aluminium,"[2]; OVX, PA250",2 ± 1.4 µmol/L
same,Serum Calcium,"[2]; OVX, PA250",9 ± 0.25 mg/dL
same,Serum Carbon,"[2]; OVX, PA250",30 ± 0.5 mEq/L
same,Serum Cobalt,"[2]; OVX, PA250",2 ± 0.1 µg/L
same,Serum Copper,"[2]; OVX, PA250",647 ± 36 µg/L
same,Serum Iron,"[2]; OVX, PA250",170 ± 30 µg/dL
same,Serum Magnesium,"[2]; OVX, PA250",2.6 ± 0.35 mg/dL
same,Serum Manganese,"[2]; OVX, PA250",3 ± 0.4 µg/L
same,Serum Zinc,"[2]; OVX, PA250",72 ± 6 µg/dL
same,Serum Aluminium,"[2]; OVX, PA500",2.5 ± 0.2 µmol/L
same,Serum Calcium,"[2]; OVX, PA500",8.9 ± 0.27 mg/dL
same,Serum Carbon,"[2]; OVX, PA500",29 ± 1.2 mEq/L
same,Serum Cobalt,"[2]; OVX, PA500",2 ± 0.2 µg/L
same,Serum Copper,"[2]; OVX, PA500",631 ± 10 µg/L
same,Serum Iron,"[2]; OVX, PA500",200 ± 70 µg/dL
same,Serum Magnesium,"[2]; OVX, PA500",2.4 ± 0.17 mg/dL
same,Serum Manganese,"[2]; OVX, PA500",5 ± 2.5 µg/L
same,Serum Zinc,"[2]; OVX, PA500",69 ± 7.7 µg/dL
same,Serum Aluminium,"[2]; OVX, PA1000",4.5 ± 3 µmol/L
same,Serum Calcium,"[2]; OVX, PA1000",8.7 ± 0.07 mg/dL
same,Serum Carbon,"[2]; OVX, PA1000",28 ± 1 mEq/L
same,Serum Cobalt,"[2]; OVX, PA1000",1.9 ± 0.1 µg/L
same,Serum Copper,"[2]; OVX, PA1000",614 ± 31 µg/L
same,Serum Iron,"[2]; OVX, PA1000",180 ± 20 µg/dL
same,Serum Magnesium,"[2]; OVX, PA1000",2.6 ± 0.2 mg/dL
same,Serum Manganese,"[2]; OVX, PA1000",3 ± 0.6 µg/L
same,Serum Zinc,"[2]; OVX, PA1000",73 ± 2.4 µg/dL
same,Serum Aluminium,"[2]; Sham, PA250",7 ± 3 µmol/L
same,Serum Calcium,"[2]; Sham, PA250",9.1 ± 0.05 mg/dL
same,Serum Carbon,"[2]; Sham, PA250",29 ± 0.9 mEq/L
same,Serum Cobalt,"[2]; Sham, PA250",2.4 ± 6.4 µg/L
same,Serum Copper,"[2]; Sham, PA250",643 ± 52 µg/L
same,Serum Iron,"[2]; Sham, PA250",240 ± 70 µg/dL
same,Serum Magnesium,"[2]; Sham, PA250",2.8 ± 0.4 mg/dL
same,Serum Manganese,"[2]; Sham, PA250",4 ± 1.6 µg/L
same,Serum Zinc,"[2]; Sham, PA250",63 ± 5.2 µg/dL
same,Serum Aluminium,"[2]; Sham, PA500",4 ± 1 µmol/L
same,Serum Calcium,"[2]; Sham, PA500",8.9 ± 0.28 mg/dL
same,Serum Carbon,"[2]; Sham, PA500",28 ± 0.2 mEq/L
same,Serum Cobalt,"[2]; Sham, PA500",2.1 ± 0.2 µg/L
same,Serum Copper,"[2]; Sham, PA500",576 ± 69 µg/L
same,Serum Iron,"[2]; Sham, PA500",200 ± 80 µg/dL
same,Serum Magnesium,"[2]; Sham, PA500",2.8 ± 0.25 mg/dL
same,Serum Manganese,"[2]; Sham, PA500",3 ± 0.5 µg/L
same,Serum Zinc,"[2]; Sham, PA500",62 ± 7.4 µg/dL
same,Serum Aluminium,"[2]; Sham, PA1000",5 ± 2 µmol/L
same,Serum Calcium,"[2]; Sham, PA1000",9.1 ± 0.24 mg/dL
same,Serum Carbon,"[2]; Sham, PA1000",31 ± 1.2 mEq/L
same,Serum Cobalt,"[2]; Sham, PA1000",2.2 ± 0.1 µg/L
same,Serum Copper,"[2]; Sham, PA1000",703 ± 56 µg/L
same,Serum Iron,"[2]; Sham, PA1000",200 ± 40 µg/dL
same,Serum Magnesium,"[2]; Sham, PA1000",2.8 ± 0.22 mg/dL
same,Serum Manganese,"[2]; Sham, PA1000",4 ± 0.9 µg/L
same,Serum Zinc,"[2]; Sham, PA1000",69 ± 9.3 µg/dL
